Measured values reported in patent publication US9550768B2, “Kinase modulation and indications therefor” (PLEXXIKON INC., priority 2011, dated 2017).
Some of these results come from one statement about several compounds together.

Target: T1, FLT3-ITD (Homo sapiens, UniProt P36888)
T1 sequence (P36888 with tags, fused parts or gaps INS600HVDFREYEYD): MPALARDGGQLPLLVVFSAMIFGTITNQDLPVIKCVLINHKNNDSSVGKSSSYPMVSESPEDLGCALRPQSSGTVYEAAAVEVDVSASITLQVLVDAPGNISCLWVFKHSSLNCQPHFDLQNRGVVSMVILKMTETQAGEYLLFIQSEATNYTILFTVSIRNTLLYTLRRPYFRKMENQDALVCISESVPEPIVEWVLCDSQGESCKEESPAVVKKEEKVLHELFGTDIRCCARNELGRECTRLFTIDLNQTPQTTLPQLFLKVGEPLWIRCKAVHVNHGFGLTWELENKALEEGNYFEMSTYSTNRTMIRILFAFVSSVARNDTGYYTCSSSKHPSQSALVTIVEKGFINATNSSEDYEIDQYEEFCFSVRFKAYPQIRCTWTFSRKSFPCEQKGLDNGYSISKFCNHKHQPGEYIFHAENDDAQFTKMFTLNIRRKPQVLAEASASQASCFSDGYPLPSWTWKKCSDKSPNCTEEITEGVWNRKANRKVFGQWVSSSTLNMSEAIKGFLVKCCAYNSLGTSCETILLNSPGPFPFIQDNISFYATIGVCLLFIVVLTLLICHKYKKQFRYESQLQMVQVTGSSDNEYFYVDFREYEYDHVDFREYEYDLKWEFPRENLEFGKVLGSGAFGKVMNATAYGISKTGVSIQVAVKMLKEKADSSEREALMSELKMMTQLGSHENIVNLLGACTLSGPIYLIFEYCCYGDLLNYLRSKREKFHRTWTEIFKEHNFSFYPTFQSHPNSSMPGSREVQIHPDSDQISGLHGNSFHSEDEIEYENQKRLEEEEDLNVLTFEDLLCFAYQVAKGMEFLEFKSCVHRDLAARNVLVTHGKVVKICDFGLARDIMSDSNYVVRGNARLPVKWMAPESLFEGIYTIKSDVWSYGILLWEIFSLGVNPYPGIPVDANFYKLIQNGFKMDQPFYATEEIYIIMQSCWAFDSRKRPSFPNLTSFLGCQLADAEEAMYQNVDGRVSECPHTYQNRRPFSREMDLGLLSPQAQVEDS
Experiment: Flt3 assays described in Example 3 (cell-based assays of Flt3-ITD kinase activity in MV-4-11 cells)
Settings: read-out: IC50 in the Flt3 assays described above in Example 3

Row | SMILES | IC50
1 | Cc1nc(CNc2nc(Cl)c(Cc3c[nH]c4ncc(Cl)cc34)s2)cs1 [Compound P-0201, [4-Chloro-5-(5-chloro-1H-pyrrolo[2,3-b]pyridin-3-ylmethyl)-thiazol-2-yl]-(2-methyl-thiazol-4-ylmethyl)-amine] | < 1 µM
2 | Clc1ccc(CNc2nc(Cl)c(Cc3c[nH]c4ncc(Cl)cc34)s2)nc1 [Compound P-0203, [4-Chloro-5-(5-chloro-1H-pyrrolo[2,3-b]pyridin-3-ylmethyl)-thiazol-2-yl]-(5-chloro-pyridin-2-ylmethyl)-amine] | < 1 µM
3 | CCc1nc(C)c(CNc2nc(Cl)c(Cc3c[nH]c4ncccc34)s2)[nH]1 [Compound P-0205, [4-Chloro-5-(1H-pyrrolo[2,3-b]pyridin-3-ylmethyl)-thiazol-2-yl]-(2-ethyl-5-methyl-3H-imidazol-4-ylmethyl)-amine] | < 1 µM
4 | Fc1ccc(CNc2nc(Cl)c(Cc3c[nH]c4ncccc34)s2)nc1 [Compound P-0206, [4-Chloro-5-(1H-pyrrolo[2,3-b]pyridin-3-ylmethyl)-thiazol-2-yl]-(5-fluoro-pyridin-2-ylmethyl)-amine] | < 1 µM
5 | Cc1cc(CNc2nc(Cl)c(Cc3c[nH]c4ncccc34)s2)sc1C [Compound P-0208, [4-Chloro-5-(1H-pyrrolo[2,3-b]pyridin-3-ylmethyl)-thiazol-2-yl]-(4,5-dimethyl-thiophen-2-ylmethyl)-amine] | < 1 µM
6 | c1ccc(CCNc2ccc(Cc3c[nH]c4ncccc34)cn2)cc1 [Compound P-0211, Phenethyl-[5-(1H-pyrrolo[2,3-b]pyridin-3-ylmethyl)-pyridin-2-yl]-amine] | < 1 µM
7 | Fc1ccc(CNc2ccc(Cc3c[nH]c4ncccc34)cn2)c(F)c1 [Compound P-0212, (2,4-Difluoro-benzyl)-[5-(1H-pyrrolo[2,3-b]pyridin-3-ylmethyl)-pyridin-2-yl]-amine] | < 1 µM
8 | Fc1ccccc1CNc1ccc(Cc2c[nH]c3ncccc23)cn1 [Compound P-0213, (2-Fluoro-benzyl)-[5-(1H-pyrrolo[2,3-b]pyridin-3-ylmethyl)-pyridin-2-yl]-amine] | < 1 µM
9 | Brc1cnccc1CNc1ccc(Cc2c[nH]c3ncccc23)cn1 [Compound P-0214, (3-Bromo-pyridin-4-ylmethyl)-[5-(1H-pyrrolo[2,3-b]pyridin-3-ylmethyl)-pyridin-2-yl]-amine] | < 1 µM
10 | COc1ncccc1CNc1ccc(Cc2c[nH]c3ncccc23)cn1 [Compound P-0215, (2-Methoxy-pyridin-3-ylmethyl)-[5-(1H-pyrrolo[2,3-b]pyridin-3-ylmethyl)-pyridin-2-yl]-amine] | < 1 µM
11 | Clc1ccccc1CNc1ccc(Cc2c[nH]c3ncccc23)cn1 [Compound P-0216, (2-Chloro-benzyl)-[5-(1H-pyrrolo[2,3-b]pyridin-3-ylmethyl)-pyridin-2-yl]-amine] | < 1 µM
12 | Cc1ccccc1CNc1ccc(Cc2c[nH]c3ncccc23)cn1 [Compound P-0217, (2-Methyl-benzyl)-[5-(1H-pyrrolo[2,3-b]pyridin-3-ylmethyl)-pyridin-2-yl]-amine] | < 1 µM
13 | Cn1c(CNc2ccc(Cc3c[nH]c4ncccc34)cn2)nc2ccccc21 [Compound P-0218, (1-Methyl-1H-benzoimidazol-2-ylmethyl)-[5-(1H-pyrrolo[2,3-b]pyridin-3-ylmethyl)-pyridin-2-yl]-amine] | < 1 µM
14 | COc1ccc(CNc2ccc(Cc3c[nH]c4ncccc34)cn2)cn1 [Compound P-0219, (6-Methoxy-pyridin-3-ylmethyl)-[5-(1H-pyrrolo[2,3-b]pyridin-3-ylmethyl)-pyridin-2-yl]-amine] | < 1 µM
15 | Fc1ccc(CNc2ccc(Cc3c[nH]c4ncccc34)cn2)c(Cl)c1 [Compound P-0221, (2-Chloro-4-fluoro-benzyl)-[5-(1H-pyrrolo[2,3-b]pyridin-3-ylmethyl)-pyridin-2-yl]-amine] | < 1 µM
16 | COc1cncc(CNc2ccc(Cc3c[nH]c4ncccc34)cn2)c1 [Compound P-0222, (5-Methoxy-pyridin-3-ylmethyl)-[5-(1H-pyrrolo[2,3-b]pyridin-3-ylmethyl)-pyridin-2-yl]-amine] | < 1 µM

Row | SMILES | IC50
17 | COc1cccc(CNc2ccc(Cc3c[nH]c4ncccc34)cn2)n1 [Compound P-0224, (6-Methoxy-pyridin-2-ylmethyl)-[5-(1H-pyrrolo[2,3-b]pyridin-3-ylmethyl)-pyridin-2-yl]-amine] | < 1 µM
18 | Fc1ccc(CNc2ccc(Cc3c[nH]c4ncccc34)cn2)c(C(F)(F)F)c1 [Compound P-0225, (4-Fluoro-2-trifluoromethyl-benzyl)-[5-(1H-pyrrolo[2,3-b]pyridin-3-ylmethyl)-pyridin-2-yl]-amine] | < 1 µM
19 | FC(F)(F)c1ccccc1CNc1ccc(Cc2c[nH]c3ncccc23)cn1 [Compound P-0226, [5-(1H-Pyrrolo[2,3-b]pyridin-3-ylmethyl)-pyridin-2-yl]-(2-trifluoromethyl-benzyl)-amine] | < 1 µM
20 | c1cc(CNc2ccc(Cc3c[nH]c4ncccc34)cn2)nc(N2CCOCC2)c1 [Compound P-0228, (6-Morpholin-4-yl-pyridin-2-ylmethyl)-[5-(1H-pyrrolo[2,3-b]pyridin-3-ylmethyl)-pyridin-2-yl]-amine] | < 1 µM
21 | Clc1cnc2[nH]cc(Cc3sc(NCc4ccncc4)nc3Cl)c2c1 [Compound P-0237, [4-Chloro-5-(5-chloro-1H-pyrrolo[2,3-b]pyridin-3-ylmethyl)-thiazol-2-yl]-pyridin-4-ylmethyl-amine] | < 1 µM
22 | CCn1cc(CNc2nc(Cl)c(Cc3c[nH]c4ncc(Cl)cc34)s2)cn1 [Compound P-0239, [4-Chloro-5-(5-chloro-1H-pyrrolo[2,3-b]pyridin-3-ylmethyl)-thiazol-2-yl]-(1-ethyl-1H-pyrazol-4-ylmethyl)-amine] | < 1 µM
23 | Fc1ccc(CNc2nc(Cl)c(Cc3c[nH]c4ncc(Cl)cc34)s2)nc1 [Compound P-0240, [4-Chloro-5-(5-chloro-1H-pyrrolo[2,3-b]pyridin-3-ylmethyl)-thiazol-2-yl]-(5-fluoro-pyridin-2-ylmethyl)-amine] | < 1 µM
24 | FC(F)(F)c1ccc(CNc2nc(Cl)c(Cc3c[nH]c4ncc(Cl)cc34)s2)cn1 [Compound P-0242, [4-Chloro-5-(5-chloro-1H-pyrrolo[2,3-b]pyridin-3-ylmethyl)-thiazol-2-yl]-(6-trifluoromethyl-pyridin-3-ylmethyl)-amine] | < 1 µM
25 | Fc1cccc(Cl)c1CNc1nc(Cl)c(Cc2c[nH]c3ncc(Cl)cc23)s1 [Compound P-0243, [4-Chloro-5-(5-chloro-1H-pyrrolo[2,3-b]pyridin-3-ylmethyl)-thiazol-2-yl]-(2-chloro-6-fluoro-benzyl)-amine] | < 1 µM
26 | Clc1cnc2[nH]cc(Cc3sc(NCCc4ccccc4)nc3Cl)c2c1 [Compound P-0244, [4-Chloro-5-(5-chloro-1H-pyrrolo[2,3-b]pyridin-3-ylmethyl)-thiazol-2-yl]-phenethyl-amine] | < 1 µM
27 | Fc1ccc(CNc2nc(Cl)c(Cc3c[nH]c4ncc(Cl)cc34)s2)c(F)c1 [Compound P-0245, [4-Chloro-5-(5-chloro-1H-pyrrolo[2,3-b]pyridin-3-ylmethyl)-thiazol-2-yl]-(2,4-difluoro-benzyl)-amine] | < 1 µM
28 | Fc1ccccc1CNc1nc(Cl)c(Cc2c[nH]c3ncc(Cl)cc23)s1 [Compound P-0246, [4-Chloro-5-(5-chloro-1H-pyrrolo[2,3-b]pyridin-3-ylmethyl)-thiazol-2-yl]-(2-fluoro-benzyl)-amine] | < 1 µM
29 | Clc1cnc2[nH]cc(Cc3sc(NCc4cccc(N5CCOCC5)n4)nc3Cl)c2c1 [Compound P-0252, [4-Chloro-5-(5-chloro-1H-pyrrolo[2,3-b]pyridin-3-ylmethyl)-thiazol-2-yl]-(6-morpholin-4-yl-pyridin-2-ylmethyl)-amine] | < 1 µM
30 | Clc1cnc2[nH]cc(Cc3sc(NCc4c(Cl)cncc4Cl)nc3Cl)c2c1 [Compound P-0253, [4-Chloro-5-(5-chloro-1H-pyrrolo[2,3-b]pyridin-3-ylmethyl)-thiazol-2-yl]-(3,5-dichloro-pyridin-4-ylmethyl)-amine] | < 1 µM
31 | Cc1cccc(CNc2nc(Cl)c(Cc3c[nH]c4ncc(Cl)cc34)s2)n1 [Compound P-0255, [4-Chloro-5-(5-chloro-1H-pyrrolo[2,3-b]pyridin-3-ylmethyl)-thiazol-2-yl]-(6-methyl-pyridin-2-ylmethyl)-amine] | < 1 µM
32 | N#Cc1cnc2[nH]cc(Cc3ccc(NCc4ccc(Cl)cc4)nc3)c2c1 [Compound P-0257, 3-[6-(4-Chloro-benzylamino)-pyridin-3-ylmethyl]-1H-pyrrolo[2,3-b]pyridine-5-carbonitrile] | < 1 µM
